# Reference: publication PMC12040169 (PLOS Biology, 2025)
# The other results are listed elsewhere or left out.
# Tested on: T1, CTL2-GFP (C. trachomatis L2/434/Bu, GFP-expressing)
# T1 construct: L2/434/Bu, GFP-expressing
# Parameters: species or system HeLa; Intracellular C. trachomatis growth in HeLa cells, bulk GFP fluorescence relative to DMSO
# Settings: bulk GFP, single well; 28.5 h, 10 µM; inhibitor
row,SMILES,% of control remaining [%]
1,CCN(CC)C(=O)CN1C(=O)C2(Nc3ccccc3C(=O)N2c2ccc(C)cc2)c2ccccc21 (stereo not drawn) [CBK093478],84.1686
2,O=C(Nc1ccc(/C=C/c2ccccc2)cc1)c1ccc(COc2ccccc2)o1 [CBK267829],127.423
3,CNCC1CCCN(Cc2cn(-c3ccc(Br)cc3)nc2C)C1 (stereo not drawn) [CBK304301C],144.013
4,Cc1oc(NC(=O)CN2CCN(c3ccccn3)CC2)c(C#N)c1C [CBK236456],77.1853
5,Cc1cnn(C)c1CN1CCC(C(N)=O)(N2CCCCC2)CC1 [CBK304400],125.031
6,COCC(=O)N[C@H]1CCN2C(=O)c3cc(-c4cccc(C)c4C)ccc3NC(=O)[C@@H]2C1 [CBK289562],135.778
7,COc1ccc(Cl)cc1NC(=O)CN(C1CCCCC1)S(C)(=O)=O [CBK266720],126.67
8,Cn1cc(C(=O)N2CCc3ccccc32)c2ccccc21 [CBK200407],111.748
9,CC(=O)N1c2ccc(-c3cn4cc(C)ccc4n3)cc2CC1C (stereo not drawn) [CBK285195],105.869
10,CC(=O)N1CCc2sccc2C1c1ccccc1NC(=O)c1ccco1 (stereo not drawn) [CBK286436],136.833
11,Cc1nnc(SCC(=O)N/N=C/c2coc3ccccc3c2=O)n1-c1ccccc1 [CBK262842],100
12,Cc1cccc(C(=O)NC(CC(C)C)c2nnc3n2CCNCC3)n1 (stereo not drawn) [CBK306866],113.394
13,CC1CCCCN1Cc1nc2c(c(=O)n(C)c(=O)n2C)n1CCc1ccccc1 (stereo not drawn) [CBK269189],112.733
14,Cc1oc(-c2ccccc2)nc1C(=O)N1CCCN(C)CC1 [CBK073940C],80.4871
15,COc1cccc(-c2nnc(SCC(=O)Nc3cccc([N+](=O)[O-])c3)n2C)c1 [CBK266074],124.985
16,Cc1cc(NC(=O)CN(C)C(=O)Cc2cccc(C(F)(F)F)c2)no1 [CBK305564],147.061
17,C=CCNC(=O)C1(Cc2ccccc2-c2ccncc2)CCOCC1 [CBK284784],126.101
18,c1ccc2c(c1)OCC(c1nn3c(Cn4cnc5ccccc54)nnc3s1)O2 (stereo not drawn) [CBK268436],108.513
19,Cc1ccc(C(=O)COc2ccc(/C=C(\C#N)c3nc(-c4ccc5c(c4)OCO5)cs3)cc2)cc1 [CBK266778],124.006
20,Cc1ccc(S(=O)(=O)N/N=C(/c2ccccc2)c2ccc(OCC(C)C)cc2)cc1 [CBK261056],82.9854
21,CC(=O)N[C@H]1CC[C@]2(C)CCC([C@H](C)C(=O)NCCN3CCCC3)[C@H](O)[C@H]2[C@@H]1C (stereo partly drawn) [CBK289440],156.616
22,Cc1nnc(SCC(=O)NCCc2ccccc2)nc1O [CBK268045],135.454
23,O=C(COc1ccccc1)NC(/C=C/c1ccccc1)c1cc(Cl)c2cccnc2c1O (stereo not drawn) [CBK263994],66.278
24,CCc1cnccc1C(=O)N1CCC(NC(=O)c2cnn(C)c2)CC1 [CBK305388],120.699
25,O=C(c1cc(-c2ccncc2)nc2ccc(Cl)cc12)N1CCN(c2ccc([N+](=O)[O-])cc2)CC1 [CBK267748],123.431
26,CNC(=O)C1(Cc2ccc(-c3ccccc3)cc2)CCN(C(=O)Cc2ccc(C)cc2)CC1 [CBK285769],120.037

# Quoted at random: 4 compounds from above
row,SMILES,% of control remaining [%]
16,Cc1cc(NC(=O)CN(C)C(=O)Cc2cccc(C(F)(F)F)c2)no1 [CBK305564],147.061
22,Cc1nnc(SCC(=O)NCCc2ccccc2)nc1O [CBK268045],135.454
21,CC(=O)N[C@H]1CC[C@]2(C)CCC([C@H](C)C(=O)NCCN3CCCC3)[C@H](O)[C@H]2[C@@H]1C (stereo partly drawn) [CBK289440],156.616
20,Cc1ccc(S(=O)(=O)N/N=C(/c2ccccc2)c2ccc(OCC(C)C)cc2)cc1 [CBK261056],82.9854

# Later entries.

row,SMILES,% of control remaining [%]
1,CC(C)CN(CCc1ccc(O)cc1)CC(=O)NC1(c2ccccc2)CCC1 [CBK067781T],73.7362
2,CC(CN1CCCCC1)OC(=O)COc1ccc(F)cc1 (stereo not drawn) [CBK058066C],126.073
3,CN1CCC[C@H]1C(=O)Nc1nc2c(s1)C(=O)CC(C)(C)C2 [CBK144101],103.291
4,N#Cc1c(NC(=O)C(=O)NCc2cccnc2)sc2c1CCCC2 [CBK269485],133.786
5,CCN(CC)S(=O)(=O)c1ccc(Cl)c(C(=O)Oc2cccc3cccnc23)c1 [CBK263205],109.333
6,COc1ccc(-c2ccccc2CC2(C(=O)NCc3cccs3)CCOCC2)cc1 [CBK286429],117.472
7,CCOc1ccc(-c2cncc(NC3CCC(O)CC3)n2)cc1 (stereo not drawn) [CBK065877],102.499
8,S=c1[nH]nc(Nc2ccccc2)n1-c1ccccc1 [CBK026332],113.567
9,NCCCNCCOc1ccc(Cl)c(Cl)c1 [CBK268631C],41.7265
10,Cc1onc(-c2ccccc2)c1CNC(=O)c1cccnc1 [CBK144100],99.5833
11,Fc1cccc2sc(Nc3nc(-c4ccccn4)cs3)nc12 [CBK287479],64.4796
12,CCOC(=O)c1cccnc1-c1ccc(OC)c(OC)c1 [CBK149240],125.248
13,O=C(Nc1ccc(S(=O)(=O)Nc2nccs2)cc1)c1cc(-c2cccnc2)nc2ccc(Cl)cc12 [CBK267721],132.373
14,CC1=NN(c2ccc([N+](=O)[O-])cc2)C(=O)/C1=C/NCCN1CCN(C(=O)c2ccc(F)cc2)CC1 [CBK262920],90.0606
15,CC(C)(C)OC(=O)NC1CCC(NCc2ccncc2)CC1 (stereo not drawn) [CBK056688],112.253
16,CCOc1ccc(CN(C)CC(=O)Nc2cc(C)no2)cc1 [CBK305605],140.595
17,CN(C(=O)c1ccc2c(c1)NC(=O)CS2)c1ccccc1 [CBK296612],104.845
18,O=C(NC1(C#Cc2cnc3ccccc3c2)CCCCC1)C1CCCO1 (stereo not drawn) [CBK283085],118.868
19,COc1cc(S(=O)(=O)NCCCn2ccnc2)ccc1Cl [CBK269186],124.377
20,CCNc1n[nH]c(N)c1-c1nc(-c2ccc(OC)cc2)no1 [CBK288557],118.939
21,COc1ccccc1C(=O)Nc1ccccc1N1CCN(C)CC1 [CBK267938],90.1011
22,COc1cc(C(=O)N2CCC3(CC2)CC(=O)c2ccc(C)cc2O3)cc(-c2ccc(OC)c(OC)c2)c1 [CBK168282],145.89
23,Cc1ncc(-c2ccc3ccccc3c2)s1 [CBK019439B],145.795
24,O=S(=O)(NCCN1CCCC1)c1cccc2nsnc12 [CBK261132],124.821
25,Cc1c(CCC(=O)N2CCCC(C(=O)O)C2)c(=O)oc2c(C)c(O)ccc12 (stereo not drawn) [CBK286764],134.196
26,N#Cc1c(NC(=O)CN2CCCCC2)sc2c1CCCC2 [CBK261619],100

row,SMILES,% of control remaining [%]
1,CCn1cc(CN2CCOC(c3cccc(-c4ccc(OC)cc4)n3)C2)c(C)n1 (stereo not drawn) [CBK286250],130.867
2,O=C1CCCCCC1C(Nc1ccc2ccccc2c1)c1cccnc1 (stereo not drawn) [CBK293919],139.129
3,CN(C)S(=O)(=O)c1ccc(C(=O)Nc2ccccc2O)cc1 [CBK267809],119.116
4,FC(F)Oc1ccc(NC(=S)NCCN2CCOCC2)cc1 [CBK028000],143.873
5,CCCC(=O)c1ccc(S(=O)(=O)N2CCCN(Cc3c(C)[nH]c(C(=O)OCC)c3C)CC2)cc1 [CBK062947],106.565
6,COc1cccc(CNc2ccc(N3CCOCC3)cc2)c1OCc1ccccc1F [CBK074406],37.6857
7,COc1ccc2ncc(C(=O)O)c(Nc3ccccc3C)c2c1 [CBK269522C],135.344
8,O=C(Nc1cccnc1)N1CCCC(CO)C1 (stereo not drawn) [CBK156068],98.9536
9,CC(Oc1ccc(C(C)(C)C)cc1)C(=O)Nc1nnc[nH]1 (stereo not drawn) [CBK267431],146.473
10,Cc1cccc(-c2ccc3c(c2)C(=O)N2CC[C@H](NC(=O)c4cnccn4)[C@H]2C(=O)N3)c1C [CBK289348],118.034
11,O=C(c1ccc(N2CCCC2)cc1)N1CCc2sccc2C1c1ccco1 (stereo not drawn) [CBK285707],114.752
12,COC(=O)c1cc(NC(=O)NCCC2=CCCCC2)cc(C(=O)OC)c1 [CBK044120],45.4259
13,COc1ccc(OC)c(-n2c(SCC(=O)N3CCC(C(=O)O)CC3)nc3ccccc3c2=O)c1 [CBK296981],156.088
14,COCCNc1cc(-c2ccncc2)ncn1 [CBK037729],151.263
15,Cc1ccccc1OCc1nn2c(COc3ccccc3)nnc2s1 [CBK267230],145.804
16,Cc1c(CN2CCC(CO)C2)cnn1Cc1ccccc1 (stereo not drawn) [CBK282113],131.572
17,CC(=O)NCCSc1nc2ccccc2nc1C(F)(F)F [CBK105303],115.362
18,CCOC(=O)c1c(-c2cccs2)csc1NC(=O)CN1CCCCCC1 [CBK265294G],116.391
19,CCCn1ncc(C(=O)N2CCC(Oc3ccccc3F)CC2)c1C [CBK282169],99.6565
20,COc1ccc(CC(=O)N(C)Cc2nnc3ccccn23)cc1 [CBK304935],84.5456
21,CCOC(=O)N1CCC(NC(=O)N2CCC(C(=O)O)CC2)CC1 [CBK156080],97.8837
22,CN1CCN(Cc2ccc(-c3ccc(C(N)=O)cc3)nc2)CC1 [CBK306750],109.464
23,O=C(Nc1ccccc1C(=O)O)c1ccc(S(=O)(=O)N2CCCCC2)cc1 [CBK265174],134.578
24,Cn1cccc1C(=O)N[C@H]1CCN2C(=O)N(c3cccc(F)c3)C(=O)[C@@H]2C1 [CBK289549],97.5368
25,Cc1ccc(=O)n(CC(=O)N2CCC[C@@H]3NC(=O)c4ccccc4OCCCCC[C@@H]32)n1 [CBK292100],116.641
26,CCc1ccc2c(c1)C(CCNC(=O)c1sccc1C)C(=O)N2 (stereo not drawn) [CBK306459],145.415
